Measurements as given in patent US20170368181A1, “Polymeric Nanoparticle” (The Provost Fellows and Scholars of the College of the Holy …, priority 2010, published 2017).
At least one structure is not confirmed: it was looked up by name or label, or the drawing left a doubt.

What was measured:
[1] = test system: K/BxN serum induced BALB/c mice; test: K/BxN mouse model of arthritis, intra-articular delivery; assay type: in vivo
[2] = test system: NR4A2; test: NR4A2 expression in ankle joints of K/BxN sera-induced mice; assay type: in vivo, mouse; settings: intra-peritoneal delivery
Excerpt: On day 4 after K/BxN serum transfer, mice were sacrificed, and their hind paws above the knee joint were harvested for histology to assess the effects of drug treatments on inflammation and bone and cartilage degradation. The histology sections were stained with hematoxylin and eosin (H&E) and Saffarin O and scored blindly under 3 different categories (i) inflammation (synovitis infiltration and pannus formation), (ii) cartilage erosion and (iii) bone erosion. RNA was also isolated from both the ankle joint and knee joint tissue to measure expression of NR4A biomarkers.
RNA was isolated from the ankle joints of control and ‘inflamed’ K/BxN mice to measure expression of NR4A biomarkers. In K/BxN sera-induced mice with no treatment (therefore showing inflammation), high levels of NR4A1, NR4A2 and NR4A3 were over expressed, compared to naïve mice with no serum transfer (no inflammation (FIG. 20).
Expression of NR4A2 was measured in all groups (FIG. 21). […] Histological sections of the knee joint were scored by an observer blinded to the treatment under 3 different criteria (i) inflammation (synovitis infiltration and pannus formation), (ii) cartilage erosion and (iii) bone erosion on a scale of 0-3 (0, none; 1, minimal invasion of meniscus; 2, partial invasion of meniscus; 3, severe invasion of meniscus). […]

## C[C@@H]1C[C@H]2[C@@H]3CCC4=CC(=O)C=C[C@]4(C)[C@@]3(F)[C@@H](O)C[C@]2(C)[C@@]1(O)C(=O)CO [dexamethasone]
[1]
  histology of the knee joint (H&E): bone, cartilage, synovitis: repair of bone architecture can be seen
[2]
  NR4A2 expression in the ankle joints: reduced NR4A2 expression
